The results in this text go back to publication PMC5542199.

Amino acid sequences for entries named in this document (tags omitted).
UniProt Q9QUR7: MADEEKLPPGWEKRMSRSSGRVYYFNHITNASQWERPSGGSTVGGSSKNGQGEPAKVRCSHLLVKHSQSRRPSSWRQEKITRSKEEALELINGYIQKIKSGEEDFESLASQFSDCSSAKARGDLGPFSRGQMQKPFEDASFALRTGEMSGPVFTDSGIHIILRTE

In this test the target is T1, Promyelocytic leukemia (PML) protein (mouse (endogenous in NMCMs)) (UniProt Q60953).
T1 sequence: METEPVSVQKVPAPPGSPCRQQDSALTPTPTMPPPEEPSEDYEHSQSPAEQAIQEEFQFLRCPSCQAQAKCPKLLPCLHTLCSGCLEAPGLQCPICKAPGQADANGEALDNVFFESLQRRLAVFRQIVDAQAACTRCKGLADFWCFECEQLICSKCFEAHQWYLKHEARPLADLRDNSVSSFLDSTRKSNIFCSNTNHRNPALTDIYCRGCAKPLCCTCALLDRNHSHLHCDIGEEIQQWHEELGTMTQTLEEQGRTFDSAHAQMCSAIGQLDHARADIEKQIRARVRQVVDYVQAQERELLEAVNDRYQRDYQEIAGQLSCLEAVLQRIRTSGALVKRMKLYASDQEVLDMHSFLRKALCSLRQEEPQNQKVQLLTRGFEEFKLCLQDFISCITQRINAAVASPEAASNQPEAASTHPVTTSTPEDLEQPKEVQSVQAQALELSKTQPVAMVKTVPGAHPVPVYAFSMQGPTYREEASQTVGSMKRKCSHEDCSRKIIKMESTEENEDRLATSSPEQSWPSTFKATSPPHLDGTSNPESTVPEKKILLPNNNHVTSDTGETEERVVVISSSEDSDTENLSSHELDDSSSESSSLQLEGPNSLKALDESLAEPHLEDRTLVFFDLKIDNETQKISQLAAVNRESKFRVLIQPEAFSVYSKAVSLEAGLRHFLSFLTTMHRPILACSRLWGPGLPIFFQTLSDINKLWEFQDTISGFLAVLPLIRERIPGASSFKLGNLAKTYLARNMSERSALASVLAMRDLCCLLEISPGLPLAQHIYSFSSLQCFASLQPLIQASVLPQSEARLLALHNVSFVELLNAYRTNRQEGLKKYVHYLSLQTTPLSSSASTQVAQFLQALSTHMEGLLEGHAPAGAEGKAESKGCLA
Put plainly: co-IP; NMCM lysate in RIPA buffer, 500 ug protein; anti-PML or anti-Pin1 antibody at 4°C overnight, Protein A/G agarose beads 8 h at 4°C, rinsed five times with TBST; immunoblot for the other protein. Background: In western blotting, separated proteins are transferred to a membrane and probed.

No constants are given. Whether binding was seen depends on the method and setting. In cells and extracts the contact can be indirect. Some entries that bind do so weakly or less than the wild type.

Pin1 (from UniProt Q9QUR7 1-165): the binding entry is recorded as “binds”.
